Measurements reported in doi:10.1101/2024.10.10.617680.
Read-outs that look alike come from different tables or passages of the source. No constants are given. Whether binding was seen depends on the method and setting. For part of these data: In cells and extracts the contact can be indirect. Some results given as binding are weak or reduced against the parent protein; the word gives no strength. Tags and fused reporters may be left off the sequences shown.

Sequences of proteins named here, by UniProt entry; tags and fusion partners are left off.
UniProt P51587: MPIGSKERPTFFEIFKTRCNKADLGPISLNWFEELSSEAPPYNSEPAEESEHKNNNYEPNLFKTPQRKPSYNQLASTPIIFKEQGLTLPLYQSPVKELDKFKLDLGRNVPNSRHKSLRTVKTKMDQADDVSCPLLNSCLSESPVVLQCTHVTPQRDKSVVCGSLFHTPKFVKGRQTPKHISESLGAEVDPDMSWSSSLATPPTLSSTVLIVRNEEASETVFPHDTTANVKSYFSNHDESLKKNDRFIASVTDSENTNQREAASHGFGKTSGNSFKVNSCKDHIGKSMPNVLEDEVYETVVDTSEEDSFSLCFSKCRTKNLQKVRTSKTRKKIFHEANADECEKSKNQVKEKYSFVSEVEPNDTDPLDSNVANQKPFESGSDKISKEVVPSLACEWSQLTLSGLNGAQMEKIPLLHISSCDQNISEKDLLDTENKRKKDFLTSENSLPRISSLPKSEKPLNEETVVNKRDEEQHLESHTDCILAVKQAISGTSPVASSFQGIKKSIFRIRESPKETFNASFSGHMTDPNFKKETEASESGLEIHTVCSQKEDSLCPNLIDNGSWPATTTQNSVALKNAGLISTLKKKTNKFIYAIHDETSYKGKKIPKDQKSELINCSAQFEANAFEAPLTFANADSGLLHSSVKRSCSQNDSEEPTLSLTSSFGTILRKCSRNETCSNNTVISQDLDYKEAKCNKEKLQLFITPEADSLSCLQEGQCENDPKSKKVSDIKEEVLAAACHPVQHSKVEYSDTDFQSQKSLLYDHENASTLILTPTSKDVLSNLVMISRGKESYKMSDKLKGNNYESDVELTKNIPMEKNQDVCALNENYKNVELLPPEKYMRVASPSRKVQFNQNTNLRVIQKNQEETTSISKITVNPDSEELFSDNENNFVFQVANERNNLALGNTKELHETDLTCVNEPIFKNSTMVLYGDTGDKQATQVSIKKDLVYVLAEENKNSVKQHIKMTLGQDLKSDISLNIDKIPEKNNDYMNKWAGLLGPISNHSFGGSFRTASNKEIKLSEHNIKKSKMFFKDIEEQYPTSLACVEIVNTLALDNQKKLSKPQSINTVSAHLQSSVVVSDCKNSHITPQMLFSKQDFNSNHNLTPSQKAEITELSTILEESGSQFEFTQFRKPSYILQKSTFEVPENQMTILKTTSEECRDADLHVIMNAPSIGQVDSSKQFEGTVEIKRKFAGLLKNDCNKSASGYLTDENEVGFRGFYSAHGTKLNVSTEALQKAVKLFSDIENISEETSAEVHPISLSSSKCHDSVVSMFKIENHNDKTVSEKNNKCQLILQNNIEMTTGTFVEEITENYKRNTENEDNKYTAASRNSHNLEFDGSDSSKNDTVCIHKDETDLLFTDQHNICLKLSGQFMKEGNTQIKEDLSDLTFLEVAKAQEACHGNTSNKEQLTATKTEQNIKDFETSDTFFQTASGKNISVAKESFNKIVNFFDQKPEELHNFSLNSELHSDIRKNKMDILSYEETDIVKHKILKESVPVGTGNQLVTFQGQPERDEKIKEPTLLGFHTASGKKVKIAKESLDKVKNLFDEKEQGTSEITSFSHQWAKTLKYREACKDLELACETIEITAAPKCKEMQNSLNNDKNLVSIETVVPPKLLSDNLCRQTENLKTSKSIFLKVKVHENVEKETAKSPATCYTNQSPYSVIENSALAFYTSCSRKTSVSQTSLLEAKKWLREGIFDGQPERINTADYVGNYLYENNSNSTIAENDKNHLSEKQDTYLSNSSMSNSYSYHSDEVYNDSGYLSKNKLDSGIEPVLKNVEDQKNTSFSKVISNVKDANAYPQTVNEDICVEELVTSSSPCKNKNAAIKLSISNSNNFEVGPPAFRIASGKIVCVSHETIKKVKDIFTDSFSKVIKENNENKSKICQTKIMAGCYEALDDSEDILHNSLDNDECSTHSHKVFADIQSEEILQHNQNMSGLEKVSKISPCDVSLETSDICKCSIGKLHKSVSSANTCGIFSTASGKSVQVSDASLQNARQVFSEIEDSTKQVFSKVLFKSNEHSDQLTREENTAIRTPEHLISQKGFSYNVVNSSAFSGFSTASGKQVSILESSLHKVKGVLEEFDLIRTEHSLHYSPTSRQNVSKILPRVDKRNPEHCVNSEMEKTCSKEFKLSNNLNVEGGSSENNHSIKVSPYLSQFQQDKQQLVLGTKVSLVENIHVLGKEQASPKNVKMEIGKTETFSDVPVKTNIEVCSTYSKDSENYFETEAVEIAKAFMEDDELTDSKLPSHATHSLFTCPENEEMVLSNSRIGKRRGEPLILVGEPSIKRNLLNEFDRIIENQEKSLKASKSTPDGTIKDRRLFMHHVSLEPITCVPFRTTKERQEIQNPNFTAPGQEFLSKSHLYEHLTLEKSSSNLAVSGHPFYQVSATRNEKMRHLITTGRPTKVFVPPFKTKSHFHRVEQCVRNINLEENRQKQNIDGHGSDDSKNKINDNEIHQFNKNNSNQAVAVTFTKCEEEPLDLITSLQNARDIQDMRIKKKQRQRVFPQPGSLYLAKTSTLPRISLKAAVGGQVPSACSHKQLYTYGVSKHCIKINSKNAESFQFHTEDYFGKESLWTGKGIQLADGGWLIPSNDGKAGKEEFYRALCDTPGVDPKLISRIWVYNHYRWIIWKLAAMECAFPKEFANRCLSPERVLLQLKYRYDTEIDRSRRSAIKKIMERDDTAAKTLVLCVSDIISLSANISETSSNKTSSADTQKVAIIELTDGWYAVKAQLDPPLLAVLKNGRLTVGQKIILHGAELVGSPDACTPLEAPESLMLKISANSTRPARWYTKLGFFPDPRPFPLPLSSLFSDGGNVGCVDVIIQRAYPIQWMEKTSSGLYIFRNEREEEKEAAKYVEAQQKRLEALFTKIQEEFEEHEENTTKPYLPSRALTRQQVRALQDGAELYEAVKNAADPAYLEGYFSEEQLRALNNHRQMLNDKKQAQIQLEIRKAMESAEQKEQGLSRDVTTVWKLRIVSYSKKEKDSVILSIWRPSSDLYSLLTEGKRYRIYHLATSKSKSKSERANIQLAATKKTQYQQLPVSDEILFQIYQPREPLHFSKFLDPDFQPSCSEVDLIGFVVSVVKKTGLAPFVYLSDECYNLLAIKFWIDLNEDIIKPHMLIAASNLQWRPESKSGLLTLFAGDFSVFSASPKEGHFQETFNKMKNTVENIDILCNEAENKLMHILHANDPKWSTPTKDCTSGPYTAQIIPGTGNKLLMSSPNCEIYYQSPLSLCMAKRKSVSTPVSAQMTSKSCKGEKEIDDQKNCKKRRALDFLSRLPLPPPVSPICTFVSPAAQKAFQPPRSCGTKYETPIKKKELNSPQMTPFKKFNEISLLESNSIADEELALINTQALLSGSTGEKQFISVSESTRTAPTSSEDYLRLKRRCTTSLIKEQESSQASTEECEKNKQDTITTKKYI
UniProt P25454: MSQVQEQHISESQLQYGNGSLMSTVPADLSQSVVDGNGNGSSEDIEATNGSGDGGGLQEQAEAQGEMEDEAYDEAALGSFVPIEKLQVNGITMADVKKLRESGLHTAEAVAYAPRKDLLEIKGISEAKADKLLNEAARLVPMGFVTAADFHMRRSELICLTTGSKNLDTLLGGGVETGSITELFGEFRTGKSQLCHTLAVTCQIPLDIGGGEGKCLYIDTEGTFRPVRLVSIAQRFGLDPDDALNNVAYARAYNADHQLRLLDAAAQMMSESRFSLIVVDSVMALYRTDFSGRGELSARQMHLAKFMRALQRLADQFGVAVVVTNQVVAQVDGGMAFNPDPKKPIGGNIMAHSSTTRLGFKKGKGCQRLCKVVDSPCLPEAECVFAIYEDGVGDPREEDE

B1: HA-tagged RAD51D (protein, UniProt O75771 1-328)
chain: MGVLRVGLCPGLTEEMIQLLRSHRIKTVVDLVSADLEEVAQKCGLSYKALVALRRVLLAQFSAFPVNGADLYEELKTSTAILSTGIGSLDKLLDAGLYTGEVTEIVGGPGSGKTQVCLCMAANVAHGLQQNVLYVDSNGGLTASRLLQLLQAKTQDEEEQAEALRRIQVVHAFDIFQMLDVLQELRGTVAQQVTGSSGTVKVVVVDSVTAVVSPLLGGQQREGLALMMQLARELKTLARDLGMAVVVTNHITRDRDSGRLKPALGRSWSFVPSTRILLDTIEGAGASGGRRMACLAKSSRQPTGFQEMVDIGTWGTSEQSATLQGDQT
B2: HA-tagged RAD51B (full-length wild type) (protein, UniProt O15315-1 1-350)
chain: MGSKKLKRVGLSQELCDRLSRHQILTCQDFLCLSPLELMKVTGLSYRGVHELLCMVSRACAPKMQTAYGIKAQRSADFSPAFLSTTLSALDEALHGGVACGSLTEITGPPGCGKTQFCIMMSILATLPTNMGGLEGAVVYIDTESAFSAERLVEIAESRFPRYFNTEEKLLLTSSKVHLYRELTCDEVLQRIESLEEEIISKGIKLVILDSVASVVRKEFDAQLQGNLKERNKFLAREASSLKYLAEEFSIPVILTNQITTHLSGALASQADLVSPADDLSLSEGTSGSSCVIAALGNTWSHSVNTRLILQYLDSERRQILIAKSPLAPFTSFVYTIKEEGLVLQAYGNS
B3: HA-tagged XRCC2, O43543 1-280 (protein)
chain: MCSAFHRAESGTELLARLEGRSSLKEIEPNLFADEDSPVHGDILEFHGPEGTGKTEMLYHLTARCILPKSEGGLEVEVLFIDTDYHFDMLRLVTILEHRLSQSSEEIIKYCLGRFFLVYCSSSTHLLLTLYSLESMFCSHPSLCLLILDSLSAFYWIDRVNGGESVNLQESTLRKCSQCLEKLVNDYRLVLFATTQTIMQKASSSSEEPSHASRRLCDVDIDYRPYLCKAWQQLVKHRMFFSKQDDSQSSNQFSLVSRCLKSNSLKKHFFIIGESGVEFC
B4: HA-tagged XRCC3 (protein, UniProt O43542 1-346)
chain: MDLDLLDLNPRIIAAIKKAKLKSVKEVLHFSGPDLKRLTNLSSPEVWHLLRTASLHLRGSSILTALQLHQQKERFPTQHQRLSLGCPVLDALLRGGLPLDGITELAGRSSAGKTQLALQLCLAVQFPRQHGGLEAGAVYICTEDAFPHKRLQQLMAQQPRLRTDVPGELLQKLRFGSQIFIEHVADVDTLLECVNKKVPVLLSRGMARLVVIDSVAAPFRCEFDSQASAPRARHLQSLGATLRELSSAFQSPVLCINQVTEAMEEQGAAHGPLGFWDERVSPALGITWANQLLVRLLADRLREEEAALGCPARTLRVLSAPHLPPSSCSYTISAEGVRGTPGTQSH
B5: GAL4 AD-RAD51B (protein, UniProt O15315-1 1-350)
chain: B2 chain

Experiments:
[1] = target: 2XMBP-tagged full-length BRCA2 (human) (UniProt P51587); assay: pull-down
[2] = target: 2XMBP-tagged full-length BRCA2 (human) (UniProt P51587); assay: pull-down; remark: listed apart in the source
[3] = target: 2XMBP-tagged full-length BRCA2 (human), P51587; assay: pull-down; settings: remark: other sources report otherwise
[4] = target: 2XMBP-tagged full-length BRCA2 (human), P51587; assay: pull-down; settings: remark: other sources report otherwise; remark: listed apart in the source
[5] = target: yeast Rad51 (endogenous) (S. cerevisiae (endogenous in PJ69-4α)) (UniProt P25454); assay: two-hybrid

| Binder | binding [1] | binding [2] | binding [3] | binding [4] | binding [5] |
| --- | --- | --- | --- | --- | --- |
| B1 | binds | binds |  |  |  |
| B2 | binds | binds |  |  |  |
| B3 |  |  | binds | binds |  |
| B4 | binds | binds |  |  |  |
| B5 |  |  |  |  | binds |
